# Experimental data taken from patent publication US20120087916A1, “ANTI-ICAM-1 ANTIBODY, USES AND METHODS” (priority 2009, published 2012).
# At least one read-out could not be matched to a standard name with certainty.
# B1: BI-AB: fully human, high-affinity IgG1 mAb specific for ICAM-1 generated from the n-CoDeR human antibody fragment library (antibody, V domains shown)
# VH: EVQLLESGGGLVQPGGSLRLSCAASGFTFSNAWMSWVRQAPGKGLEWVAFIWYDGSNKYYADSVKGRFTISRDNSKNTLYLQMNSLRAEDTAVYYCARYSGWYFDYWGQGTLVTVSS
# VL: QSVLTQPPSASGTPGQRVTISCTGSSSNIGAGYDVHWYQQLPGTAPKLLIYDNNNRPSGVPDRFSGSKSGTSASLAISGLRSEDEADYYCQSYDSSLSAWLFGGGTKLTVLG
# Test: Pharmacokinetics in the cynomolgus monkey, escalation dose toxicity study
# Type: in vivo, cynomolgus monkeys
# From the text: • Table 1: BI-AB levels associated 10, 50, and 90% anti-tumour activity correlated with levels of receptor binding. • a—determined in the most sensitive setting in the ARH-77/SCID in vivo tumour model, i.e., early antibody administration. • b—determined in the advanced ARH-77/SCID in vivo tumour model (mice carrying established tumours) • Table 2: Single dose pharmacokinetics of BI-AB following single IV bolus injection • Table 3: Pharmacokinetics of BI-AB following single escalating IV bolus injection The pharmacokinetics of BI-AB was investigated at dose levels of 1, 2, 8, 20, 50, and 100 mg/kg in the escalation dose toxicity study in cynomolgus monkeys. Samples for plasma analysis were taken after all dose levels. […] Cmax were generally obtained at the first sampling time of 0.5 hours post-dose. However at 100 mg/kg the Cmax was reached 8 hours post-dose. Serum concentrations declined in a generally bi-phasic manner with an elimination time ranging from 69 to 264 hours. […] There was some carry-over of the compound between treatments due to the long half-life of BI-AB.
# The pharmacokinetics of BI-AB was investigated at dose levels of 1, 2, 8, 20, 50, and 100 mg/kg in the escalation dose toxicity study in cynomolgus monkeys. Samples for plasma analysis were taken after all dose levels.
# Cmax were generally obtained at the first sampling time of 0.5 hours post-dose. […]
molecule,measurement,setting,value
B1,time at which Cmax was reached,"100 mg/kg, post-dose",8 h
same,time at which Cmax was obtained,"generally (dose levels 1-50 mg/kg), first sampling time post-dose",0.5 h
